{"source": "patent US20060148699", "about": "(published 2006)", "key": {"peptide synthesis": {"assay": "peptide synthesis", "conditions": "whole synthesis, scale of the general procedure 50 g to 250 g resin"}, "[1]": {"assay": "general procedure: Fmoc solid-phase peptide synthesis; Rink amide resin; 2-Cl-Trt resin (loading about 0.7 mmol/g); TBTU/HOBt with diisopropylethylamine or collidine", "conditions": "whole synthesis, scale of the general procedure 50 g to 250 g resin; for final purity (method not given): HPLC"}}, "note": "Square brackets hold non-standard residues; d marks the D form. * marks the point of attachment. hArg = N=C(N)NCCCC[C@H](N)C(=O)O; Acm = CC(=O)NC*; Mpa = O=C(O)CCS"}
{"substance": "Mpa-Tyr-Phe-Gln-Asn-Cys(Acm)-Pro-D-Arg-Gly-NH2", "values": [{"measurement": "final purity (method not given)", "setting": "peptide synthesis; HPLC, TFA salt", "value": ">98.5", "unit": "%"}, {"measurement": "final HPLC purity", "setting": "peptide synthesis; acetate", "value": ">99.5", "unit": "%"}]}
{"substance": "H-Cys(Acm)-Tyr-Ile-Gln-Asn-Cys-Pro-Leu-Gly-NH2", "values": [{"measurement": "final purity (method not given)", "setting": "[1]; acetate (citrate for Nesiritide)", "value": ">98.5", "unit": "%"}]}
{"substance": "H-D-Phe-Cys-Phe-D-Trp-Lys-Thr-Cys(Acm)-Thr-ol", "values": [{"measurement": "final purity (method not given)", "setting": "[1]; TFA salt", "value": ">98.5", "unit": "%"}]}
{"substance": "H-Cys-Tyr-Phe-Gln-Asn-Cys(Acm)-Pro-Arg-Gly-NH2", "values": [{"measurement": "final purity (method not given)", "setting": "[1]; TFA salt", "value": ">98.5", "unit": "%"}, {"measurement": "final purity (method not given)", "setting": "[1]; acetate", "value": ">99.0", "unit": "%"}]}
{"substance": "[Mpa][hArg]GDWPC(Acm)-NH2", "values": [{"measurement": "final purity (method not given)", "setting": "[1]; TFA salt", "value": ">98.5", "unit": "%"}]}
{"substance": "Cys-Ser-Asn-Leu-Ser-Thr-Cys(Acm)-Val-Leu-Gly-Lys-Leu-Ser-Gln-Glu-Leu-His-Lys-Leu-Gln-Thr-Tyr-Pro-Arg-Thr-Asn-Thr-Gly-Ser-Gly-Thr-Pro-NH2", "values": [{"measurement": "final purity (method not given)", "setting": "[1]; TFA salt", "value": ">98.5", "unit": "%"}, {"measurement": "final HPLC purity", "setting": "[1]; acetate", "value": ">99.5", "unit": "%"}]}
